{"source": "PubChem BioAssay AID1053209, Peter MacCallum Cancer Centre | 2014", "test": "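Gene losses that combine with doxorubicin to kill mouse bone cancer cells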 (follow-up of hits)", "system": "mouse primary osteosarcoma cells", "knock-down reagent": "single siRNA against mouse genes, 25 nM (text also states 40 nM)", "time to read-out": "about 120 h (48 h before drug, then 72 h with drug)", "treatment": "doxorubicin 100 nM (about IC30-40), added 48 h after transfection, for 72 h", "read-out": "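Viability measured by ATP luminescence with and without doxorubicin, each replicate scaled to non-targeting siRNA NT1, averaged over two replicates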", "scale": "viability with doxorubicin, vs NT1: higher = more viable cells under doxorubicin; viability without drug, vs NT1: higher = more viable cells without drug", "call rule": "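Counted as active (class LC dox) if viability falls to 0.7 of NT1 or below under doxorubicin but stays within 0.7 to 1.1 without drug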", "note": "Here is an unselected part of about 1,580 reagents tested. 207 of all reagents (13%) count as active. 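Rows are single siRNAs; four siRNAs per gene were tested, a gene counting as confirmed only when at least two agree.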 The numbers tell different reagents against one gene apart. Not all columns of the deposit are shown."}
{"Target gene": "Rap2c (RAP2C, member of RAS oncogene family)", "siRNA no.": 1, "combined effect class": "normal viability with and without drug", "viability with doxorubicin, vs NT1": 1, "viability without drug, vs NT1": 0.99, "Call": "inactive"}
{"Target gene": "Rap2c (RAP2C, member of RAS oncogene family)", "siRNA no.": 2, "combined effect class": "normal viability with and without drug", "viability with doxorubicin, vs NT1": 0.94, "viability without drug, vs NT1": 0.97, "Call": "inactive"}
{"Target gene": "Rap2c (RAP2C, member of RAS oncogene family)", "siRNA no.": 3, "combined effect class": "normal viability with and without drug", "viability with doxorubicin, vs NT1": 1.03, "viability without drug, vs NT1": 0.88, "Call": "inactive"}
{"Target gene": "Rap2c (RAP2C, member of RAS oncogene family)", "siRNA no.": 4, "combined effect class": "normal viability with and without drug", "viability with doxorubicin, vs NT1": 0.98, "viability without drug, vs NT1": 0.96, "Call": "inactive"}
{"Target gene": "Pold2 (polymerase (DNA directed), delta 2, regulatory subunit)", "siRNA no.": 1, "combined effect class": "low viability only with doxorubicin; normal without drug", "viability with doxorubicin, vs NT1": 0.7, "viability without drug, vs NT1": 0.98, "Call": "active"}
{"Target gene": "Pold2 (polymerase (DNA directed), delta 2, regulatory subunit)", "siRNA no.": 2, "combined effect class": "normal viability with and without drug", "viability with doxorubicin, vs NT1": 0.98, "viability without drug, vs NT1": 1.03, "Call": "inactive"}
{"Target gene": "Pold2 (polymerase (DNA directed), delta 2, regulatory subunit)", "siRNA no.": 3, "combined effect class": "normal viability with and without drug", "viability with doxorubicin, vs NT1": 0.9, "viability without drug, vs NT1": 0.92, "Call": "inactive"}
{"Target gene": "Pold2 (polymerase (DNA directed), delta 2, regulatory subunit)", "siRNA no.": 4, "combined effect class": "normal viability with and without drug", "viability with doxorubicin, vs NT1": 1.03, "viability without drug, vs NT1": 1.01, "Call": "inactive"}
{"Target gene": "Smu1 (smu-1 suppressor of mec-8 and unc-52 homolog (C. elegans))", "siRNA no.": 1, "combined effect class": "normal viability with and without drug", "viability with doxorubicin, vs NT1": 0.88, "viability without drug, vs NT1": 0.86, "Call": "inactive"}
{"Target gene": "Smu1 (smu-1 suppressor of mec-8 and unc-52 homolog (C. elegans))", "siRNA no.": 2, "combined effect class": "normal viability with and without drug", "viability with doxorubicin, vs NT1": 0.94, "viability without drug, vs NT1": 1.04, "Call": "inactive"}
{"Target gene": "Smu1 (smu-1 suppressor of mec-8 and unc-52 homolog (C. elegans))", "siRNA no.": 3, "combined effect class": "low viability only with doxorubicin; normal without drug", "viability with doxorubicin, vs NT1": 0.67, "viability without drug, vs NT1": 0.84, "Call": "active"}
{"Target gene": "Smu1 (smu-1 suppressor of mec-8 and unc-52 homolog (C. elegans))", "siRNA no.": 4, "combined effect class": "low viability with and without drug", "viability with doxorubicin, vs NT1": 0.15, "viability without drug, vs NT1": 0.33, "Call": "inactive"}
{"Target gene": "Psmd11 (proteasome (prosome, macropain) 26S subunit, non-ATPase, 11)", "siRNA no.": 1, "combined effect class": "low viability with and without drug", "viability with doxorubicin, vs NT1": 0.22, "viability without drug, vs NT1": 0.36, "Call": "inactive"}
{"Target gene": "Psmd11 (proteasome (prosome, macropain) 26S subunit, non-ATPase, 11)", "siRNA no.": 2, "combined effect class": "low viability with and without drug", "viability with doxorubicin, vs NT1": 0.38, "viability without drug, vs NT1": 0.69, "Call": "inactive"}
{"Target gene": "Psmd11 (proteasome (prosome, macropain) 26S subunit, non-ATPase, 11)", "siRNA no.": 3, "combined effect class": "low viability only with doxorubicin; normal without drug", "viability with doxorubicin, vs NT1": 0.64, "viability without drug, vs NT1": 0.74, "Call": "active"}
{"Target gene": "Psmd11 (proteasome (prosome, macropain) 26S subunit, non-ATPase, 11)", "siRNA no.": 4, "combined effect class": "low viability only with doxorubicin; normal without drug", "viability with doxorubicin, vs NT1": 0.48, "viability without drug, vs NT1": 0.74, "Call": "active"}
{"Target gene": "Psma7 (proteasome subunit alpha 7)", "siRNA no.": 1, "combined effect class": "low viability with and without drug", "viability with doxorubicin, vs NT1": 0.48, "viability without drug, vs NT1": 0.64, "Call": "inactive"}
{"Target gene": "Psma7 (proteasome subunit alpha 7)", "siRNA no.": 2, "combined effect class": "low viability with and without drug", "viability with doxorubicin, vs NT1": 0.31, "viability without drug, vs NT1": 0.53, "Call": "inactive"}
{"Target gene": "Psma7 (proteasome subunit alpha 7)", "siRNA no.": 3, "combined effect class": "normal viability with and without drug", "viability with doxorubicin, vs NT1": 0.74, "viability without drug, vs NT1": 0.98, "Call": "inactive"}
{"Target gene": "Psma7 (proteasome subunit alpha 7)", "siRNA no.": 4, "combined effect class": "low viability with and without drug", "viability with doxorubicin, vs NT1": 0.27, "viability without drug, vs NT1": 0.54, "Call": "inactive"}
{"Target gene": "E2f1 (E2F transcription factor 1)", "siRNA no.": 1, "combined effect class": "normal viability with and without drug", "viability with doxorubicin, vs NT1": 1.04, "viability without drug, vs NT1": 0.94, "Call": "inactive"}
{"Target gene": "E2f1 (E2F transcription factor 1)", "siRNA no.": 2, "combined effect class": "high viability only with doxorubicin", "viability with doxorubicin, vs NT1": 1.12, "viability without drug, vs NT1": 1, "Call": "inactive"}
{"Target gene": "E2f1 (E2F transcription factor 1)", "siRNA no.": 3, "combined effect class": "normal viability with and without drug", "viability with doxorubicin, vs NT1": 1.04, "viability without drug, vs NT1": 0.96, "Call": "inactive"}
{"Target gene": "E2f1 (E2F transcription factor 1)", "siRNA no.": 4, "combined effect class": "normal viability with and without drug", "viability with doxorubicin, vs NT1": 0.97, "viability without drug, vs NT1": 0.95, "Call": "inactive"}
